Data source: PubChem BioAssay AID1259254 (NCATS, 2017)
This is a random part of about 59,000 deposited reagents. About 1,550 of all reagents (2.6%) count as active. 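G2 share is only a proxy for re-replication; each gene was hit by three separate siRNAs, and active genes were retested.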 A number with no mark means an inactive call. The numbers tell different reagents against one gene apart. Not all columns of the deposit are shown. Not stated in the record: the amount of reagent.

- Aim: 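Finding genes that stop cells copying their DNA twice in one cycle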 (primary screen)
- Cell system: human HCT116 colorectal cancer cells
- Reagents: single siRNA against human genes
- Timing: 3 days
- Measurement: 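Imaged Hoechst DNA stain sorts each cell into a cycle phase by DNA amount; per plate, G2 fraction set to 0% for non-targeting and 100% for GMNN siRNA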
- Reading the numbers: G2 robust z-score: higher = more G2 cells, more excess DNA replication
- Call rule: 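Active siRNAs have a G2 robust z of 5 or more median absolute deviations over the median, which in these data means about 38% or higher of GMNN control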

G2 robust z-score, by gene and reagent
H3C6: #1 3.54; #2 0.538; #3 5.36 (active)
TUBG2: #1 2.28; #2 0.599; #3 -0.277
RIN1: #1 0.08; #2 -0.503; #3 0.289
CDC34: #1 0.752; #2 -0.451; #3 0.497
ZNF45: #1 0.225; #2 4.43; #3 2.33
DEPDC5: #1 7.07 (active); #2 0.455; #3 4.36
ZNF592: #1 -0.5; #2 0.561; #3 -0.423
SMC3: #1 -1.08; #2 -1.34; #3 -0.884
CWF19L1: #1 1.95; #2 0.88; #3 5.37 (active)
C4BPB: #1 -1.25; #2 0.608; #3 0.858
KALRN: #1 2.05; #2 0.39; #3 0.725
PGAM1: #1 0.302; #2 -0.375; #3 0.872
RPL23P5: #1 0.151; #2 2.06; #3 0.284
INO80: #1 -0.164; #2 0.126; #3 -0.877
ANTXR2: #1 0.826; #2 -0.57; #3 1.61
ZIC4: #1 -0.484; #2 -0.945; #3 0.901
RPS15AP17: #1 0.00446; #2 5.19 (active); #3 4.84
SRCAP: #1 0.412; #2 -0.326; #3 -0.169
RNASEK: #1 -0.965; #2 5.74 (active); #3 1.95
GRK1: #1 0.116; #2 -1.68; #3 -0.987
GLG1: #1 0.744; #2 -0.607; #3 1.54
GBP2: #1 0.489; #2 0.666; #3 1.62
WFDC3: #1 -0.256; #2 1.29; #3 -1.54

A portion taken from the entries so far, for reference:
G2 robust z-score, by gene and reagent
KALRN: #1 2.05; #2 0.39; #3 0.725
PGAM1: #1 0.302
